{"source": "paper PMC4725857", "key": {"[1]": {"target": "T1, BBK32-FL (recombinant BBK32, residues 21 to 354) (B. burgdorferi B31) (UniProt O50835)", "T1 sequence": "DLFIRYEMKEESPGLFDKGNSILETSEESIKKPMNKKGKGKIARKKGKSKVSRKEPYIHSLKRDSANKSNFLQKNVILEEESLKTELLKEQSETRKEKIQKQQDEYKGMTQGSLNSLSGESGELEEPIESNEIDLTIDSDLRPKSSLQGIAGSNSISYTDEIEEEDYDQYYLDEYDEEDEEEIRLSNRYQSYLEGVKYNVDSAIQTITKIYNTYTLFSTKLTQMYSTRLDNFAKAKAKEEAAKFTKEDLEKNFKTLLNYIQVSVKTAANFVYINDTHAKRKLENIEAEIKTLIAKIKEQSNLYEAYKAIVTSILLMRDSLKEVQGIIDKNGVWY", "assay": "SPR; Biacore 3000, 25°C; BBK32 proteins immobilised by amine coupling on a C1 sensor chip; running buffer HBS-T-Ca2+ (20 mM HEPES pH 7.3, 140 mM NaCl, 0.005% Tween 20, 5 mM CaCl2), 10 μl/min; C1 0.2-100 nM, C1r enzyme 0.39-200 nM or 2.0-1000 nM series, 1:1 (Langmuir) kinetic fit; single C1 components at a fixed 50 nM; both purified"}, "[2]": {"target": "T2, BBK32-C (C-terminal region of BBK32, residues 206-354) (B. burgdorferi B31) (UniProt O50835)", "T2 sequence": "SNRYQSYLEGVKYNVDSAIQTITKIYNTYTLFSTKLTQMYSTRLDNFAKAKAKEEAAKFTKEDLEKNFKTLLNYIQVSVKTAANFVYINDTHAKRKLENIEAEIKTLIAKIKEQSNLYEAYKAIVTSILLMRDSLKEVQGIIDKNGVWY", "assay": "SPR; Biacore 3000, 25°C; BBK32 proteins immobilised by amine coupling on a C1 sensor chip; running buffer HBS-T-Ca2+ (20 mM HEPES pH 7.3, 140 mM NaCl, 0.005% Tween 20, 5 mM CaCl2), 10 μl/min; C1 0.2-100 nM, C1r enzyme 0.39-200 nM or 2.0-1000 nM series, 1:1 (Langmuir) kinetic fit; single C1 components at a fixed 50 nM; both purified"}}, "note": "These are yes or no findings as the source states them, for the method shown.", "data": [{"substance": "C1s enzyme (activated human complement C1s protease)", "values": [{"measurement": "binding", "setting": "[1]", "result": "no binding (tested: 50 nM)"}]}, {"substance": "C1s proenzyme (human complement C1s, zymogen)", "values": [{"measurement": "binding", "setting": "[2]", "result": "no binding (tested: 50 nM)"}, {"measurement": "binding", "setting": "[1]", "result": "no binding (tested: 50 nM)"}]}]}
